Measurements from US20050119186A1, “Potent peptide inhibitors and methods of use” (priority 2003, published 2005).
Results are given in words; binding and its absence hold for the method and conditions named.

Protein sequences, listed by entry. Tags and fused reporters are not part of them. Residues count along the entry.
UniProt P05362, residues 28-532: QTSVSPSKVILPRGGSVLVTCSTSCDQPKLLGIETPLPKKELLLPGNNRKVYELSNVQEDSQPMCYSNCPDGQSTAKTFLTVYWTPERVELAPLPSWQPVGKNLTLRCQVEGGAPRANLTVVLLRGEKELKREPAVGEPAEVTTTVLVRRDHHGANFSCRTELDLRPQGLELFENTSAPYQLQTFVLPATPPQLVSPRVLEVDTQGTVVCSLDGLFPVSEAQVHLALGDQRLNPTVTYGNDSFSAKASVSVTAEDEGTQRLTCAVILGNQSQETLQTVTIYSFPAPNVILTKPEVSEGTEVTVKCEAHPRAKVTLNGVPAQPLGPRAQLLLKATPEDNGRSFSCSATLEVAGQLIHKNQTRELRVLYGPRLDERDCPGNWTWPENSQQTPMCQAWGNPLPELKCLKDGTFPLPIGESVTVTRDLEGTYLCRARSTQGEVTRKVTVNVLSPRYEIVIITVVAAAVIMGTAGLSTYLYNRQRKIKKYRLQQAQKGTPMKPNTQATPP

Target: intercellular adhesion molecule-1 (ICAM-1) (human) (UniProt P05362)
Assay: cellular aggregation blocking assay (LFA-1/ICAM-1 dependent), peptide 10 µM to 1 mM

Binder	binding
CLARMRSIC (cyclic: disulfide bridge between the first and the last cysteine) [Table 1 peptide 12, … (SEQ ID NO:32)]	no binding (tested: >1000 µM)
CALRMRSIC (cyclic: disulfide bridge between the first and the last cysteine) [Table 1 peptide 11, … (SEQ ID NO:31)]	no binding (tested: >1000 µM)
CVLRMRSAC (cyclic: disulfide bridge between the first and the last cysteine) [Table 1 peptide 3, … (SEQ ID NO:23)]	no binding (tested: >1000 µM)

Continued, values first:

binding	Binder
no binding (tested: >1000 µM)	CLVRMRSAC (cyclic: disulfide bridge between the first and the last cysteine) [Table 1 peptide 5, … (SEQ ID NO:25)]
no binding (tested: >1000 µM)	CLLRMASIC (cyclic: disulfide bridge between the first and the last cysteine) [Table 1 peptide 14, … (SEQ ID NO:34)]
no binding (tested: >1000 µM)	CLLRMRSLC (cyclic: disulfide bridge between the first and the last cysteine) [Table 1 peptide 8, … (SEQ ID NO:28)]
